# Most values lie at the floor of the assay. Slopes are relative: functional sequences can read slightly below zero.
# System: Saccharomyces cerevisiae PS128 hsf1 delta, HSF1(1-493) fusion
# Experiment: growth estimate (transactivation domain function in HSF1 fusion, heat-shock survival) (a.u. (slope of normalised read count over time)); higher = stronger growth at 37°C, i.e. more transactivation activity
# Conditions: library: random library
row,Substance,growth estimate
1,SVHFQPPRYRTTVRTGQMRR,< -0.25
2,IAFWTERRNLSNSVRGFIVG,< -0.25
3,PARTS,< -0.25
4,SRSRSRVRYANSQGQ,< -0.25
5,PFRRSMNRNGWRVCCLGNKS,-0.243
6,AMAVHVGVGYTSCMETINDL,< -0.25
7,MDFVS,< -0.25
8,AALDAPERDR,< -0.25
9,GDRWSMPEAVLGCDARSLVL,< -0.25
10,LIFPVLGIFSEHGSSLPIDC,< -0.25
11,LILC,< -0.25
12,TVSSGDGSFEVMSDGR,< -0.25
13,WPTLDLLFGLWFGNRRKVAD,< -0.25
14,IISQRGSV,-0.211
15,LLIATCKNFHGGPLHLTMGK,< -0.25
16,GIAPHIKGSLGSIQQMVRFL,< -0.25
17,RPAT,< -0.25
18,ISNGRYVGDHRVGPIAG,< -0.25
19,THYGGRPGPLVNL,< -0.25
20,DISRPDHVRPVNTLAAEQGL,< -0.25
21,GRAPRYLTCRKCSIHGHYCY,< -0.25
22,FMQFAIILLYLTLLN,< -0.25
23,WLGSPVLGPRDEQRSCPYEV,-0.173
24,LSTGEALS,< -0.25
25,GAATN,< -0.25
26,CGSGDM,< -0.25

# Reformatted with bars between the fields: part of the list above.
row | Substance | growth estimate
5 | PFRRSMNRNGWRVCCLGNKS | -0.243
6 | AMAVHVGVGYTSCMETINDL | < -0.25
7 | MDFVS | < -0.25
8 | AALDAPERDR | < -0.25

# (continued)

row,Substance,growth estimate
1,DTCRAMKCSATILIHNLFSL,< -0.25
2,ACLNLLDSRQRKVRRVSKLG,< -0.25
3,DCGFVNYMIGLVYTKFRRLL,-0.229
4,TWQYEFHFATPHAPPADRRP,< -0.25
5,TTRLMGRGVIDGPDGCLQQL,< -0.25
6,GRSAGVLAHLKPSVGTPWLE,< -0.25
7,LVCTRATLRVKGVDPVPIGP,< -0.25
8,GKPRQSDLGDMS,< -0.25
9,RDGRRSNW,< -0.25
10,QDQEAGDMVP,< -0.25
11,WIRSFLLLESAEQATVSNR,< -0.25
12,HLVAFILRNLEAAKSILTTG,< -0.25
13,RCSRAYWKLQVRSALC,< -0.25
14,QRGQLTATKEGNRVQPSGGL,< -0.25
15,AESEQCKPSWCPRVPSLTKN,< -0.25
16,CVGERFAYGPYQQDNAWPDE,< -0.25
17,HDILRARQPAAP,< -0.25
18,LGSLQNSGTVASNSLSKTRL,< -0.25
19,AQLTKYCCKDRKLVVHWSPY,< -0.25
20,ITSWQRRFRIGA,< -0.25
21,EQRSPTRGIGIMINIAMEPL,< -0.25
22,LKRTLQEGYKGGLQFLIARL,< -0.25
23,GSIFEASARRRCAFESDTAA,< -0.25
24,LGIAYNHAVPPPIDVGGRTR,< -0.25
25,TSCFNICLRAIL,< -0.25
26,RIMIMVPVCVKS,< -0.25

# Given tab-delimited: part of the list above
row	Substance	growth estimate
18	LGSLQNSGTVASNSLSKTRL	< -0.25
19	AQLTKYCCKDRKLVVHWSPY	< -0.25
20	ITSWQRRFRIGA	< -0.25
21	EQRSPTRGIGIMINIAMEPL	< -0.25
22	LKRTLQEGYKGGLQFLIARL	< -0.25
23	GSIFEASARRRCAFESDTAA	< -0.25

# (cont.)

row,Substance,growth estimate
1,WLRVWLPSKNERAFAR,< -0.25
2,FQKISLIAVRALAAVSLSTL,< -0.25
3,FTYVTGPPSLPLQYSEINP,< -0.25
4,VIACCRQHAIHF,< -0.25
5,KPLDMSSLLMPGGIRPTGPG,< -0.25
6,VAVNAVPVCIGHLFSVFALL,< -0.25
7,SAHSSLRFQDLDNR,< -0.25
8,TVCKVLREPMWSRSAVMVTN,< -0.25
9,LKCEFLDRVLVRERVPARIQ,< -0.25
10,SHVCGDLRRAIACARCTTNH,< -0.25
11,VANSDRTLPRDWASAIRQFH,< -0.25
12,VMSQHYPSRPRMRHGDPTAT,< -0.25
13,SQTVVDIFVGQRSK,< -0.25
14,QSACLVVIDGLACELSPPSR,< -0.25
15,ITRGRSA,< -0.25
16,LVMDKTYSPRECMGFSSGRW,< -0.25
17,KQVYSEVVEWPSRVKYGLCL,-0.245
18,ATYLGLGVVPWARGDRFHRS,< -0.25
19,CTLMPK,< -0.25
20,KGAIYSRHQVS,< -0.25
21,EVLWRMSNDSLAFSVPRAHP,-0.248
22,QVVTSTMGPVGRGAHRANRG,< -0.25
23,DAGYQFDRSVVPCMGKSRRL,< -0.25
24,GDA,-0.243
25,GSVGLPGGFGWFFQSSKYGV,< -0.25
26,TACES,< -0.25

row,Substance,growth estimate
1,MTGETMWFDLFMW,< -0.25
2,HNGMLMCYMERECLASRHNC,< -0.25
3,WNPAVDC,< -0.25
4,WDIVSTFQIFLFAYGPFCPL,< -0.25
5,RRGRITAHEES,< -0.25
6,VGRTDTMRFGPGLRC,< -0.25
7,TQVKIRTLRGITI,< -0.25
8,VCRSSLSIIVFGGPAYLNRL,-0.246
9,RVTAWHSLTVADKCAVAVCT,< -0.25
10,TLGVTYEPIECYVLVISC,< -0.25
11,VCESAIMFERWCYDRSP,< -0.25
12,LMTLRVTVKPGSLPQWVEVS,< -0.25
13,LGK,< -0.25
14,PSVTRRE,< -0.25
15,LGIAQSEVSRFTAVAIFRRA,< -0.25
16,IQRISRLSFSFRNDQYGGCI,< -0.25
17,KVTQYGDVISVDIKLRH,-0.246
18,KDVYS,< -0.25
19,ERRASRYGSIELNVEGGLSL,< -0.25
20,AHMCRRGGRGVGSPGVAESK,< -0.25
21,RQGESEAVIALLNNKRVFSA,< -0.25
22,QVNSVQ,< -0.25
23,SVQERVVGYDGPFKRGERRF,< -0.25
24,HDSLYTRSLPSA,< -0.25
25,TLS,< -0.25
26,YVCADIIGDRN,< -0.25

row,Substance,growth estimate
1,DTPGFSGAHHR,< -0.25
2,PVSCMETRAHRGSATGRRTL,< -0.25
3,HEIAHPYLRSWGP,< -0.25
4,RFPHLGR,< -0.25
5,KSIVSTKMGDGGPILSS,< -0.25
6,SIGDEARPACCAACVRSVRR,< -0.25
7,VIFYEGIV,< -0.25
8,YTDCSHWCWANYSSEEYVGP,2.39
9,WLARLTEPGTEYARSNTPCL,-0.0581
10,LETSRDAESAGWVESLGCGT,< -0.25
11,QPWVNISWQCMINIVGGALL,< -0.25
12,RAMLSTFREKARADDWVARM,< -0.25
13,GCLGSEDGSRGVPNEKGDWR,< -0.25
14,LGHGGGIGSLRIRQLCEAES,< -0.25
15,SRESEETLTLGVLELMNTQD,-0.195
16,IPTQGKCSNYLTRAFPSAGR,< -0.25
17,NRCLFRRRRFSRSSSRLGDQ,< -0.25
18,MRWVCRRLRVSGLGLEHSGG,< -0.25
19,GIYW,< -0.25
20,TGRLYNLLVLRLP,< -0.25
21,DTDGSSYLLI,< -0.25
22,PRIAHYADRSRGY,< -0.25
23,RSDASFCVWRVLTG,< -0.25
24,RYCTEQKVNHHRENP,< -0.25
25,GVTAAQSPRIL,< -0.25
26,GGSRRCRVKLQLSPCPMLQN,< -0.25

row,Substance,growth estimate
1,LTTWGKRKDHSSNALHTLIQ,< -0.25
2,YPRRHAVLPTGSVFQSWDVW,< -0.25
3,FHTLILDYSDFAVMHAIKGA,< -0.25
4,YDSFPL,< -0.25
5,QLDE,< -0.25
6,VQSCGLRILHLLTIVRVLWV,< -0.25
7,NPSPSTVIGGPQRPSQPVRG,< -0.25
8,KQTWN,< -0.25
9,SPKSLQPSYTRPG,< -0.25
10,LLLRDVRKAPSRKDAGATYV,< -0.25
11,SPAYTG,< -0.25
12,LRLASTITIFTG,< -0.25
13,VAVPDGRACPLKLGSLKSRF,-0.182
14,GRPVLECDSTLAEWPGFMLV,< -0.25
15,RSPSRWI,< -0.25
16,PVIS,< -0.25
17,ACV,-0.0632
18,PVGTMGGDYGTHIR,< -0.25
19,GKWPVYVEIDGVSVAAGAGR,< -0.25
20,LKPLRWQHLYGLDHGGH,< -0.25
21,AVISDRKSATGFIISAKPPY,< -0.25
22,LSPLV,< -0.25
23,IGISHVRLSNHISNCVCGTW,< -0.25
24,RYRAPYANDTMRATQNLQFA,< -0.25
25,TVSNFVFVIL,< -0.25

# — the supplement of paper PMC5949888
